# Assay results as given in PubChem BioAssay AID651640 (Broad Institute, 2012).
# Where “and” joins values, the source holds several entries; their conditions need not be identical. Identical values can stand only once. Hit rate of the full screen: of about 350,000 compounds, about 6,000 (1.7%) were called active. The inconclusive results got no clear call from the source; some entries with a clear call stand among them for comparison. No stated cut-off is given here; in the data, active means CPE inhibition above about 20% (passing the limit was not always enough); inconclusive means no clear call, values can overlap the other calls; tested in BHK-21 cells.
# Experiment: protection of cells from dengue 2 killing – plate reader, single concentration, primary screen (AID 651640);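 further: 0% = median of neutral control wells and 100% = median of positive control wells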
# Settings: DENV2-infected cells, cytopathic effect rescue, at 9.99 µM, active compounds read high
row,Compound,CPE inhibition
1,C[C@H]1CCCCO[C@@H](CN(C)Cc2ccccc2)[C@@H](C)CN([C@@H](C)CO)C(=O)c2cc(NC(=O)CCCN(C)C)ccc2O1,inconclusive: 20.5%
2,Cc1cccn2c(=O)c(C(=O)NC3CCCCC3C)c(O)nc12 (configuration not stated),inconclusive: 27%
3,Cc1ccc(S(=O)(=O)N(C)c2ccc(OCC(=O)N3CCCCC3)cc2)cc1,inconclusive: 22.8%
4,C[C@@H]1CN([C@H](C)CO)C(=O)CCCn2cc(nn2)CO[C@H]1CN(C)C(=O)Nc1ccc(C(F)(F)F)cc1,inconclusive: 22.6% and inconclusive: 35.2%
5,COc1ccccc1Nc1nc(NCCCCO)nc(N2CCCC2)n1,active: 86.1%
6,CN(c1ccc(O)cc1)c1nc(O)c(C2=c3ccccc3=NC2=O)s1,inactive: -4.46%
7,O=C1NC[C@H](CCCCN2C[C@H](Cc3ccccc3)N(Cc3ccccc3)C(=O)C2=O)N(CCc2ccccc2)C1=O,inconclusive: 32.1%
8,NN1C(=O)/C(=C\c2ccco2)SC1=S,inactive: -1.84%
9,COc1ccc(OCCOC(=O)CCS(=O)(=O)c2ccc(C)cc2)cc1,inconclusive: 25.7%
10,COc1ccc2c3c(n(C)c2c1)[C@H](CO)N(Cc1nccs1)CC31CCN(C(C)=O)CC1,active: 27%
11,Fc1ccccc1NC(=S)NCCc1cccc(Cl)c1,inactive: 8.83%
12,Cn1cnc(S(=O)(=O)N2C[C@@H](O)COC[C@H]3O[C@H](CC(=O)NCc4cccc(F)c4)CC[C@@H]32)c1,inconclusive: 49.6%
13,C[C@@H]1CCCCO[C@@H](CN(C)Cc2ccccc2)[C@H](C)CN([C@@H](C)CO)C(=O)c2cc(NS(=O)(=O)c3ccc(Cl)cc3)ccc2O1,inconclusive: 25.9%
14,Cn1c(=O)c2c(nc(CN3CCN(C(c4ccccc4)c4ccccc4)CC3)n2CCCO)n(C)c1=O,inconclusive: 23.9%
15,CO[C@@H]1CN(C)C(=O)c2ccc(NC(=O)c3ccc(Oc4ccccc4)cc3)cc2OC[C@H](C)NC[C@@H]1C,inconclusive: 29.4%
16,COc1ccc(NC(=O)N(C)C[C@@H]2Oc3ccc(NC(=O)Nc4ccc(F)cc4)cc3CC(=O)N([C@@H](C)CO)C[C@@H]2C)cc1,active: 49.8%
17,COC(C/C=C\C(=O)[C@H](C)OCc1ccccc1)OC,inconclusive: 73.5%
18,C=CCNc1nc(C(=O)OCC(=O)NCc2ccccc2OC)cs1,active: 65.9%
19,COCC(=O)N1[C@H](CO)[C@@H](c2ccccc2C2=CCCCC2)[C@@H]1C#N,inconclusive: 27.7%
20,Nc1[nH]c(C(=O)c2ccc(Br)cc2)c(-c2c(F)cccc2F)c1C(=O)NCCc1c[nH]c2ccccc12,active: 39.3%
21,O=C(c1cccc(F)c1)N1CCCCN2[C@H](CO)[C@H](c3ccc(-c4ccccc4)cc3)[C@H]2C1,active: 40.9%
22,O=c1c2[nH]c3cccc(Cl)c3c2ncn1CC1CCCO1 (configuration not stated),inactive: 1.33%
23,Cc1ccccc1S(=O)(=O)N1CC(=O)N2[C@H](CO)[C@@H](c3ccc(C#CCN(C)C)cc3)[C@@H]2C1,active: 33.9%
24,Cc1ccc(S(=O)(=O)Nc2ccc3c(c2)CC(=O)N([C@H](C)CO)C[C@@H](C)[C@@H](CN(C)Cc2ccc(Oc4ccccc4)cc2)O3)cc1,active: 38.2%

row,Compound,CPE inhibition
1,CCCN(CCc1ccccc1)C1CCc2c(O)cccc2C1 (configuration not stated),inconclusive: 22%
2,CCc1ccc(C(=O)NNC(=O)CCN2CCN(Cc3ccccc3)CC2)cc1,inactive: 1.64%
3,C[C@@H]1CN([C@@H](C)CO)C(=O)c2cc(NS(=O)(=O)c3cccs3)ccc2O[C@@H](C)CCCCO[C@@H]1CN(C)C(=O)CCCN(C)C,active: 46.4%
4,COc1ccc(S(=O)(=O)N2CCCCC2)cc1NC(=O)CCc1cc(OC)c(OC)c(OC)c1,inconclusive: 27.2%
5,C/C(=N\Nc1ncc(Cl)cc1Cl)c1ccc2c(c1)OCO2,inactive: 2.09%
6,O=C(C[C@@H]1CC[C@@H]2[C@H](COC[C@H](O)CN2C(=O)c2ccccc2)O1)N1CCOCC1,inactive: -4.71%
7,COc1cc2c(cc1OC)CN(C(=O)[C@@H]1[C@H]3C(=O)O[C@H](c4ccccc4)[C@H](c4ccccc4)N3[C@H](c3ccc(O)cc3)[C@@]13C(=O)Nc1ccc(C#CCCO)cc13)CC2,inactive: 3.01%
8,O=C(C[C@H]1CC[C@H](NC(=O)C2CCOCC2)[C@@H](CO)O1)NCC1CC1,active: 34.3%
9,Cc1cc(C)c2oc(C(=O)Nc3ccc(S(=O)(=O)Nc4nccs4)cc3)cc(=O)c2c1,inactive: 4.27%
10,O=C(C[C@@H]1CC[C@@H]2[C@H](COC[C@@H](O)CN2CC2CCOCC2)O1)NCC1CCCCC1,inconclusive: 21.8%
11,O=C(O)c1ccccc1Sc1ncnc2sc3c(c12)CCC3,inactive: -3.55%
12,CCOc1ccc(NC(=S)N2CCC(NC(=O)c3ccccc3C)CC2)cc1,inactive: 3.43%
13,CN1CCCCC(NC(=O)c2cccs2)C1=O (configuration not stated),inconclusive: 37.6%
14,Cc1ccc(S(=O)(=O)N2CCN(C(=O)/C=C/c3ccco3)CC2)cc1,inconclusive: 64.8%
15,CCOc1ccccc1CNC(=O)CCNS(=O)(=O)c1ccc2[nH]c(=O)oc2c1,inconclusive: 22.1%
16,COC(=O)C1=CN(Cc2ccc(OC)c(OC)c2)C=C(C(=O)OC)C1c1ccccc1F,inconclusive: 22.6%
17,CCCCOc1ccc(S(=O)(=O)NC(=O)C2(C)CCN2C(=O)c2cccc(F)c2)cc1 (configuration not stated),inconclusive: 22.5%
18,COc1ccc(CCNC(=O)CC2Oc3ccc(Cl)cc3NC2=O)cc1OC (configuration not stated),inconclusive: 22.1%
19,Cc1cccc(C(=O)Nc2nnc(S(=O)(=O)N3CCCCCC3)s2)c1,inconclusive: 24.4%
20,Cc1noc(C)c1S(=O)(=O)Nc1ccc2c(c1)C(=O)N([C@H](C)CO)C[C@H](C)[C@H](CN(C)CC1CC1)OCCCC[C@@H](C)O2,inactive: 5.54%
21,Oc1ccc(C[C@@H]2CNCCN2CC2(c3ccccc3)CC2)cc1,inconclusive: 24.8%
22,Cc1ccc2[nH]cc(S(=O)(=O)c3ccc(C(C)C)cc3)c(=O)c2c1,inconclusive: 26.9%
23,O=C(N[C@@H]1CC[C@H](CC(=O)N2CCN(c3ccccc3)CC2)O[C@H]1CO)c1ccccc1,inconclusive: 21.6%
